The assay deals with P388 leukemia ip, CD2F1 mice, survival T/C. The assay can be described thus: NCI In Vivo Anticancer Drug Screen. Data for tumor model P388 Leukemia (intraperitoneal) in CD2F1 (CDF1) mice. Conditions: T/C endpoint: median survival time, higher T/C = longer survival.
Setting [1] is: dose: 200.0 mg/kg/injection, schedule: Q01DX009 (ip), vehicle: saline.
[2] abbreviates: dose: 120.0 mg/kg/injection, schedule: Q01DX005 (ip), vehicle: saline with Tween-80.
[3] abbreviates: dose: 240.0 mg/kg/injection, schedule: Q01DX005 (ip), vehicle: saline with Tween-80.
The mark [4] stands for this setting: dose: 100.0 mg/kg/injection, schedule: Q01DX009 (ip), vehicle: Klucel (hydroxypropylcellulose) (HPC).
The mark [5] stands for this setting: dose: 200.0 mg/kg/injection, schedule: Q01DX009 (ip), vehicle: Klucel (hydroxypropylcellulose) (HPC).
Setting [6] is: dose: 25.0 mg/kg/injection, schedule: Q01DX009 (ip), vehicle: saline with Tween-80.
[7] abbreviates: dose: 50.0 mg/kg/injection, schedule: Q01DX009 (ip), vehicle: saline with Tween-80.
Where [8] appears, read: dose: 100.0 mg/kg/injection, schedule: Q01DX009 (ip), vehicle: saline with Tween-80.
The mark [9] stands for this setting: dose: 200.0 mg/kg/injection, schedule: Q01DX009 (ip), vehicle: saline with Tween-80.
Setting [10] is: dose: 400.0 mg/kg/injection, schedule: Q01DX009 (ip), vehicle: saline with Tween-80.
[11] abbreviates: dose: 4.0 mg/kg/injection, schedule: Q01DX009 (ip), vehicle: saline with Tween-80.
Setting [12] is: dose: 8.0 mg/kg/injection, schedule: Q01DX009 (ip), vehicle: saline with Tween-80.
Where [13] appears, read: dose: 16.0 mg/kg/injection, schedule: Q01DX009 (ip), vehicle: saline with Tween-80.
[14] abbreviates: dose: 32.0 mg/kg/injection, schedule: Q01DX009 (ip), vehicle: saline with Tween-80.
[15] abbreviates: dose: 64.0 mg/kg/injection, schedule: Q01DX009 (ip), vehicle: saline with Tween-80.

Structures are written as SMILES. The list shows only some results of the screen, not a fair sample: it is rich in T/C values a quarter to a half above the control, in often repeated tests (any T/C) and in doses without a T/C. Further doses and runs are listed elsewhere. T/C: endpoint of the treated group in % of that of the vehicle group. Some doses have a count of surviving animals in place of a T/C: the source holds a T/C of zero for them, seemingly a mark for toxic or unscored doses. Some doses without a T/C left all or most animals alive at the check, yet need not have been tolerated: survival well below the control is almost never listed, so the zero probably covers shortened survival too. Survivors were counted at the toxicity check, usually on the fifth day, unless a day is given; later deaths do not show. Schedules are NCI's codes, taken here to give the interval after Q, in days (D) or hours (H), and the number of doses after X. Some entries were tested several times; their values stand side by side, smallest first. Where survival is the endpoint, this PubChem deposit counts one and a half times the control or more as active, and values a quarter to a half above the control carry no call in these data; other NCI protocols may use other cut-offs. Some T/C values carry the count of animals alive at the toxicity check (mostly the fifth day); without a count, all were alive then.

For `CC(C)NCCO`, the survivor count by setting is: (dose: 100.0 mg/kg/injection, schedule: Q01DX009 (ip), vehicle: saline) 5 of 6; under setting [1], 2 of 6.
For `CC(=O)c1c(O)cc2c3c1OC(C)(C)C1CCC(C)(CC31)O2` (centres undefined), the survivor count (dose: 50.0 mg/kg/injection, schedule: Q01DX009 (ip), vehicle: saline) is 5 of 6.
In the case of `Cc1cc(N=[N+]=[N-])c2cc(F)ccc2n1`, the survivor count runs as follows: under setting [2], 2 of 6 and 3 of 6; under setting [3], 0 of 6.
Regarding `FC(F)(F)c1cc(NC(=S)SC2CCCCC2)ccc1Cl`, the T/C under setting [1] was 127 % of control.
For the compound `Cc1ccc2cccc(OC(=O)Nc3ccc(C)c(NC(=O)Oc4cccc5ccc(C)nc45)c3)c2n1`, the survivor count is recorded as 3 of 6 under setting [2] and 0 of 6 under setting [3].
`C=C(OP(=O)(OC)OC)Sc1ccccc1C`: the survivor count reads like this: (dose: 3.0 mg/kg/injection, schedule: Q01DX005 (ip), vehicle: Klucel (hydroxypropylcellulose) (HPC)) 0 of 6; (dose: 3.12 mg/kg/injection, schedule: Q01DX005 (ip), vehicle: Klucel (hydroxypropylcellulose) (HPC)) 0 of 6; (dose: 6.25 mg/kg/injection, schedule: Q01DX005 (ip), vehicle: Klucel (hydroxypropylcellulose) (HPC)) 0 of 6; (dose: 12.5 mg/kg/injection, schedule: Q01DX005 (ip), vehicle: Klucel (hydroxypropylcellulose) (HPC)) 0 of 6; (dose: 25.0 mg/kg/injection, schedule: Q01DX005 (ip), vehicle: Klucel (hydroxypropylcellulose) (HPC)) 0 of 6; (dose: 50.0 mg/kg/injection, schedule: Q01DX005 (ip), vehicle: Klucel (hydroxypropylcellulose) (HPC)) 0 of 6. The survivor count is, setting by setting: (dose: 100.0 mg/kg/injection, schedule: Q01DX005 (ip), vehicle: Klucel (hydroxypropylcellulose) (HPC)) 0 of 6; under setting [4], 5 of 6; (dose: 200.0 mg/kg/injection, schedule: Q01DX005 (ip), vehicle: Klucel (hydroxypropylcellulose) (HPC)) 0 of 6; under setting [5], 6 of 6. Besides, the T/C (dose: 50.0 mg/kg/injection, schedule: Q01DX009 (ip), vehicle: Klucel (hydroxypropylcellulose) (HPC)) is 137 % of control.
In the case of `CCOC(=O)c1c(Cl)c(CC)c(N=[N+]=[N-])n2c1nc1ccccc12`, the survivor count under setting [3] is on record as 3 of 6.
In the case of `O=C(CBr)N1c2ccccc2Sc2ccc3ccccc3c21`, the T/C runs as follows: under setting [6], 129 % of control [5 of 6 alive]; under setting [7], 129 and 140 % of control; under setting [8], 122, 133 [5 of 6 alive], 140 % of control. The survivor count under setting [8] is 6 of 6, the survivor count under setting [9] is recorded as 3 of 6 and the survivor count under setting [10] is listed as 0 of 6.
Consider `Cc1cc(NCCCCCCNc2cc(C)nc3cc(N(C)C)ccc23)c2ccc(N(C)C)cc2n1`, for which the T/C runs as follows: (dose: 3.12 mg/kg/injection, schedule: Q01DX009 (ip), vehicle: distilled water + Tween-80 + alcohol) 130 % of control; (dose: 6.25 mg/kg/injection, schedule: Q01DX009 (ip), vehicle: distilled water + Tween-80 + alcohol) 127 % of control [4 of 6 alive]. In addition, the survivor count (dose: 50.0 mg/kg/injection, schedule: Q01DX009 (ip), vehicle: distilled water + Tween-80 + alcohol) is 3 of 6 and 6 of 6; the survivor count (dose: 100.0 mg/kg/injection, schedule: Q01DX009 (ip), vehicle: distilled water + Tween-80 + alcohol) was 2 of 6; the survivor count (dose: 200.0 mg/kg/injection, schedule: Q01DX009 (ip), vehicle: distilled water + Tween-80 + alcohol) is reported as 0 of 6.
With `N#CCCCN1C(=O)c2ccccc2C1=O`, the survivor count is, setting by setting: under setting [5], 0 of 6; (dose: 400.0 mg/kg/injection, schedule: Q01DX009 (ip), vehicle: Klucel (hydroxypropylcellulose) (HPC)) 0 of 6.
As to `CCO/C=C1\SC(=S)N(c2cccc(OC)c2)C1=O`, the T/C was 127 % of control under setting [10] and 136 % of control (dose: 400.0 mg/kg/injection, schedule: Q04DX003 (ip), vehicle: saline with Tween-80).
Consider `CC1(C)CC2=NO[Se]3=C2C(=NO3)C1`, for which the survivor count under setting [6] is given as 0 of 6, the survivor count under setting [7] was 6 of 6, the survivor count under setting [8] was 2 of 6 and the survivor count under setting [9] was 0 of 6.
Take `O=C1OCc2c1cc1n(c2=O)Cc2cc3ccccc3nc2-1`: the T/C is, setting by setting: under setting [11], 94 [5 of 6 alive], 98 [5 of 6 alive], 107, 112 % of control; under setting [12], 92, 117, 127 % of control. For the same compound, the survivor count is, setting by setting: under setting [12], 6 of 6; under setting [13], 6 of 6; under setting [14], 5 of 6; under setting [15], 6 of 6.
`Cc1noc(/N=N/N(C)c2ccccc2)c1C`: the survivor count under setting [9] is recorded as 3 of 6.
`C=C1C(=O)C23OC2C1CCC(=O)C1(C)CC[C@H](OC(C)=O)C(C)(C)[C@H]1CC3O` (some centres undefined): the survivor count was 0 of 6 (dose: 80.0 mg/kg/injection, schedule: Q01DX005 (ip), vehicle: Klucel (hydroxypropylcellulose) (HPC)) and 0 of 6 (dose: 160.0 mg/kg/injection, schedule: Q01DX005 (ip), vehicle: Klucel (hydroxypropylcellulose) (HPC)).
For the compound `C=C1C(=O)OCC1(C(=O)OCC)C(=O)OCC`, the T/C was 129 % of control under setting [11], 134 % of control under setting [13] and 147 % of control under setting [14]. For the same compound, under setting [15], the survivor count is on record as 1 of 6.
For `COC1/C=C/OC2(C)Oc3c(C)c(O)c4c(O)c(c(/C=N/NC5C6CC7CC(C6)CC5C7)c(O)c4c3C2=O)NC(=O)/C(C)=C/C=C/C(C)C(O)C(C)C(O)C(C)C(OC(C)=O)C1C` (centres undefined), the survivor count runs as follows: under setting [8], 5 of 6; under setting [9], 0 of 6.
As to `CCn1cc(C(=O)O)c(=O)c2nc(S(C)=O)sc21` (centres undefined), the survivor count is, setting by setting: under setting [2], 3 of 6; under setting [3], 3 of 6.
As for `COc1ccc2nccc(C(=O)CCC3CCN(C(=O)c4ccc([N+](=O)[O-])cc4)CC3C(Br)CBr)c2c1` (centres undefined), the survivor count (dose: 400.0 mg/kg/injection, schedule: Q04DX002 (ip), vehicle: saline with Tween-80) was 0 of 6.
In the case of `CN(C)CC(CN(C)C)C(=O)c1ccc(Oc2ccc(Cl)cc2)cc1`, the survivor count by setting is: (dose: 15.0 mg/kg/injection, schedule: Q01DX005 (ip), vehicle: saline) 5 of 6; (dose: 30.0 mg/kg/injection, schedule: Q01DX005 (ip), vehicle: saline) 0 of 6; (dose: 60.0 mg/kg/injection, schedule: Q01DX005 (ip), vehicle: saline) 0 of 6; (dose: 120.0 mg/kg/injection, schedule: Q01DX005 (ip), vehicle: saline) 0 of 6; (dose: 240.0 mg/kg/injection, schedule: Q01DX005 (ip), vehicle: saline) 0 of 6.
With `CSC(SC)=C(C#N)c1nc(SC)c(C#N)c(SC)n1`, the survivor count (dose: 200.0 mg/kg/injection, schedule: Q04DX003 (ip), vehicle: saline) is recorded as 3 of 6.
Turning to `CC(=O)Nc1ccc(OCCOC(=O)Nc2ccc(C)cc2[N+](=O)[O-])cc1`, the survivor count is, setting by setting: under setting [4], 6 of 6; under setting [5], 6 of 6.
`Cc1cc(C)cc(NCCC#N)c1`: the survivor count (dose: 400.0 mg/kg/injection, schedule: Q04DX003 (ip), vehicle: other) is on record as 5 of 6.
As for `COc1ccc(C(C#N)N2CCCC2)cc1` (centres undefined), under “dose: 25.0 mg/kg/injection, schedule: Q04DX003 (ip), vehicle: other”, the survivor count is 4 of 6.
For `NCCCCS(=O)(=O)Nc1ccc(Nc2c3ccccc3nc3cc([N+](=O)[O-])ccc23)cc1`, for the setting “dose: 33.0 mg/kg/injection, schedule: Q04DX003 (ip), vehicle: saline”, the T/C was 140 % of control. Besides, under “dose: 300.0 mg/kg/injection, schedule: Q04DX003 (ip), vehicle: water”, the survivor count is on record as 2 of 8.

The values are drawn from PubChem BioAssay AID330 (DTP/NCI, 2004).
